Measurements reported in article PMC3689657.
These are yes or no findings as the source states them, for the method shown. Tags and fused reporters may be left off the sequences shown.

Target: Pseudomonas aeruginosa UDP-N-acetylglucosamine-enolpyruvate reductase (MurB) (Pseudomonas aeruginosa PAO1) (UniProt Q9HZM7)
Assay: SEC; purified PaMurB on Superdex 200 10/300, 25 mM Tris-Cl pH 8.0, 150 mM NaCl; single peak at 16.5 ml, mass from a calibration curve; both purified

binding: no binding
B1: Pseudomonas aeruginosa UDP-N-acetylglucosamine-enolpyruvate reductase (MurB) (enzyme, UniProt Q9HZM7 1-339)
chain: SMSLELQEHCSLKPYNTFGIDVRARLLAHARDEADVREALALARERGLPLLVIGGGSNLLLTRDVEALVLRMASQGRRIVSDAADSVLVEAEAGEAWDPFVQWSLERGLAGLENLSLIPGTVGAAPMQNIGAYGVELKDVFDSLTALDRQDGTLREFDRQACRFGYRDSLFKQEPDRWLILRVRLRLTRRERLHLDYGPVRQRLEEEGIASPTARDVSRVICAIRREKLPDPAVLGNAGSFFKNPLVDATQAERLRQAFPDLVGYPQADGRLKLAAGWLIDKGGWKGFRDGPVGVHAQQALVLVNHGGATGAQVRALAERIQEDVRRRFGVELEPEPNLY
